PubChem BioAssay AID1224826, NIAID – 2016
The deposit covers about 17,000 reagents; below is a part drawn at random. Over the whole deposit, about 1,110 (6.6%) got an active call. 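Active means lowered or raised reporter signal; replicate intensities are raw and not normalised per plate.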 Reagents against one gene are numbered here. Not all columns of the deposit are shown.

- Aim: 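Knock-downs that raise or lower Tnf reporter signal after endotoxin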 (primary screen)
- Cell system: RAW264.7 G9 macrophages from mouse bearing reporters for p65 (GFP) and the Tnf promoter (mCherry)
- Reagents: siRNA pool against mouse genes, 100 nM
- Time to read-out: 16 h of LPS stimulation, after 2 days of siRNA transfection
- Conditions: bacterial lipopolysaccharide (Salmonella minnesota R595), 10 ng/ml
- Measurement: 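Nuclear mCherry signal of the Tnf promoter reporter measured by imaging after background removal, scaled to each plate median and turned into robust z-scores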
- Scale: Tnf reporter robust z-score: higher = stronger Tnf promoter reporter signal after LPS
- Rule for the call: 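Called active when robust z-score is at most -1.3, matching the median of the Tlr4 knock-down control, or over 3; control wells and wells with under 50 cells never active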
- Calls: active = Tnf reporter clearly lowered or raised; inactive = no clear change in Tnf reporter

Rgma (repulsive guidance molecule family member A)
- Tnf reporter robust z-score: 0.71
- fewer than 50 cells in well: enough cells in well
- outcome: inactive

Prf1 (perforin 1 (pore forming protein))
- Tnf reporter robust z-score: -0.65
- fewer than 50 cells in well: enough cells in well
- outcome: inactive

Rinl (Ras and Rab interactor-like)
- Tnf reporter robust z-score: 0.04
- fewer than 50 cells in well: enough cells in well
- outcome: inactive

Klf17 (Kruppel-like transcription factor 17)
- Tnf reporter robust z-score: 1.13
- fewer than 50 cells in well: enough cells in well
- outcome: inactive

Rsu1 (Ras suppressor protein 1)
- Tnf reporter robust z-score: -0.06
- fewer than 50 cells in well: enough cells in well
- outcome: inactive

Tsr2 (TSR2 20S rRNA accumulation)
- Tnf reporter robust z-score: 2.54
- fewer than 50 cells in well: enough cells in well
- outcome: inactive

Sfmbt1 (Scm-like with four mbt domains 1) #1
- Tnf reporter robust z-score: 1.42
- fewer than 50 cells in well: enough cells in well
- outcome: inactive

Sfmbt1 (Scm-like with four mbt domains 1) #2
- Tnf reporter robust z-score: 1.14
- fewer than 50 cells in well: enough cells in well
- outcome: inactive

Gjc1 (gap junction protein, gamma 1)
- Tnf reporter robust z-score: -1.08
- fewer than 50 cells in well: enough cells in well
- outcome: inactive

Ncln (nicalin)
- fewer than 50 cells in well: fewer than 50 cells per well; well left out of calls
- outcome: inactive

Ubl3 (ubiquitin-like 3)
- Tnf reporter robust z-score: -0.46
- fewer than 50 cells in well: enough cells in well
- outcome: inactive

Gnmt (glycine N-methyltransferase)
- Tnf reporter robust z-score: 0.35
- fewer than 50 cells in well: enough cells in well
- outcome: inactive

Arl11 (ADP-ribosylation factor-like 11)
- Tnf reporter robust z-score: 1.43
- fewer than 50 cells in well: enough cells in well
- outcome: inactive

Ca13 (carbonic anhydrase 13)
- Tnf reporter robust z-score: 0.42
- fewer than 50 cells in well: enough cells in well
- outcome: inactive

Records listed so far whose target name starts with S or s (2):
Sfmbt1 (Scm-like with four mbt domains 1) #1
- Tnf reporter robust z-score: 1.42
- fewer than 50 cells in well: enough cells in well
- outcome: inactive

Sfmbt1 (Scm-like with four mbt domains 1) #2
- Tnf reporter robust z-score: 1.14
- fewer than 50 cells in well: enough cells in well
- outcome: inactive
